The results in this text go back to PMC10810786.

Assay [1] concerns the target recombinant TbEIF4E6-H51A mutant (GST tag removed) (Trypanosoma brucei). The assay is described as follows: nanoDSF (thermal unfolding); purified protein and purified complex in 20 mM Tris-HCl, 150 mM NaCl, 2 mM DTT, pH 8.0; linear ramp from 20 to 80 °C; with and without cap-4; both purified.
Assay [2] shares this target. The assay is described as follows: SEC; TbEIF4E6-H51A after removal of GST incubated with the purified 4G5 peptide (molar ratio 1/1.1); complex purified on Superdex 75 16/600 in 20 mM Tris-HCl, 150 mM NaCl, 2 mM DTT, pH 8.0; both purified.

Results are given in words; binding and its absence hold for the method and conditions named. Binding calls can cover weak binding; strength is not graded here.

For SSYPEDCVYEIAEFTRLQNTKCLPPKGILQFATDLWKE [TbEIF4G5_79-116 peptide], the binding result in assay [1] and in assay [2] was “binds” in each case.
